According to PubChem BioAssay AID1347076 (National Center for Advancing Translational Sciences (NCATS), 2019):
“And” between values parts separate entries of the source, which are not always exact repeats. Equal entries are not always repeated. In all, about 400,000 compounds went through this assay and about 13,000 (3.2%) were called active. Inconclusive means that the source gave no clear call. Such entries were picked first, then a sample of the others. The call rests on the fitted dose curve; in most records, active means well fitted cell-killing curve with a large enough effect; inconclusive means small, poorly fitted or top-dose-only effect, or effect the other way; inactive means flat fitted curve, though single readings scatter. Where the call is inconclusive, the potency comes from a doubtful curve fit.

assay: qHTS assay for MDR1-selective chemotherapeutics: Primary screen using the drug-selected MDR subline cells KB-V1; conditions: KB-V1 MDR cells viability, CellTiter-Glo, 72 h; activity change, negative = cytotoxicity: at 46.1 µM (top of the series); further: nearly all actives have a fitted effect of over 60% in size
Outline: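 Cytotoxicity via CellTiter-Glo luminescence after 72 h compound exposure at 37 degrees C. Cells: drug-selected KB-V1 line, DMEM phenol-red free plus 10% FBS. Compounds tested at multiple concentrations; normalized data fitted to concentration-effect curves.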
On the % scale 0 is the no-effect control and ±100 the full control effect; potency means the concentration at half of the fitted maximal effect.

Row | Compound | Potency | activity change, negative = cytotoxicity
1 | CCC(CC)C(=O)N1N=C(c2ccc(NS(C)(=O)=O)cc2)CC1c1ccc(C)cc1 (stereo not drawn) | active: 18.4 µM | –
2 | Cc1cccc(C)c1NC(=O)C(c1ccc(C(F)(F)F)cc1)n1c(=O)c(-c2cc3ccccc3[nH]2)nc2ccccc21 (stereo not drawn) | inactive | –
3 | Cc1c(C)c2ccc(OCC(=O)N3CCN(C(=O)C4COc5ccccc5O4)CC3)cc2oc1=O (stereo not drawn) | inactive | –
4 | O=C(c1cccc(Cl)c1)N1CCC(=O)N([C@H](COCc2cccc(Cl)c2)Cc2ccccc2)CC1 | inconclusive: 23.1 µM [cytotoxic, single point] | –
5 | C(=N\Nc1nc(Nc2ccccc2)nc(N2CCOCC2)n1)/c1c[nH]c2ccccc12 | active: 23.1 µM | –
6 | CC(C)C[C@@H](C(=O)NCc1ccco1)N1C(=O)N2CCc3c([nH]c4ccccc34)[C@@]2(C)C1=O | inconclusive: 29.1 µM [cytotoxic, single point] | –
7 | O=S(=O)(NCc1ccc(F)cc1)c1ccc(-n2cccn2)cc1 | inactive | –
8 | C/C(=C\C(=O)c1ccccc1)NCc1ccc(F)cc1 | inactive | –
9 | CN(Cc1ccccc1F)C(=O)c1ccc(Oc2ccccc2)cc1 | inactive | –
10 | CCN(CC(=O)Nc1cc(Cl)ccc1C)C(=O)C1CCN(c2ncnc3sc(C)c(C)c23)CC1 | inconclusive: 14.6 µM [cytotoxic, partial curve] | –
11 | COc1cccc(C(=O)N2CCN(C(=O)COc3ccc4ccccc4c3)CC2)c1 | inconclusive: 11.6 µM [cytotoxic, partial curve] | –
12 | CCNC(=O)COn1c(SCC(=O)NCC)nc2ccccc2c1=O | inconclusive: 9.2 µM [rising, partial curve, poor fit] | –
13 | O=C1CC2(CCCCC2)Oc2ccc(OCC(=O)N3CCOCC3)cc21 | active: 11.6 µM | –
14 | O=C(CCS(=O)(=O)c1cc(Br)cc2c1N(C(=O)C1CC1)CC2)N1CCN(c2ccccc2)CC1 | inconclusive: 18.4 µM [rising, single point] | –
15 | Cc1ccc(C)c(NC(=O)CN(C)C(=O)c2ccc(S(=O)(=O)N3CCCCCC3)cc2)c1 | inactive | –
16 | O=S(=O)(c1cccs1)N1CCN(CC(O)COC2CCCc3ccccc32)CC1 (stereo not drawn) | inconclusive: 3.26 µM [cytotoxic, full curve] | –
17 | Cc1ccc(NC(=O)CN(C)C(=O)COc2cc(F)ccc2[N+](=O)[O-])cc1 | inactive | –
18 | CCCCCCC(=O)N/N=C/c1ccc(Br)cc1 | inactive | –
19 | Cc1cc(C)n2c(Nc3ccc4c(c3)OCCO4)c(-c3cc4ccccc4o3)nc2n1 | inconclusive: 20.6 µM [cytotoxic, single point] | –
20 | CNC(=O)c1cc2ccccc2o1 | inactive | –
21 | O=C1CCc2cc(S(=O)(=O)Nc3cccc(F)c3)cc3c2N1CC3 | inconclusive: 9.2 µM [cytotoxic, partial curve, poor fit] | –
22 | COc1ccc(S(=O)(=O)N2CCC(O)(c3ccc(Cl)cc3)CC2)cc1 | inconclusive: 29.1 µM [cytotoxic, single point] | –
23 | Cc1cccc(C(=O)NCC(=O)NNC(=O)c2ccccc2O)c1 | inactive | –

Row | Compound | Potency | activity change, negative = cytotoxicity
24 | COc1cccc(N2CCN(c3cnc4ccccc4n3)CC2)c1 | inconclusive: 29.1 µM [cytotoxic, single point] | –
25 | CN(C)C(=O)CCc1ccc2c3c([nH]c2c1)[C@]1(CCC2CCCC2)[C@@H](C(=O)N2CCOCC2)C[C@H](CC(=O)NCCC2=CCCCC2)C(=O)N1CC3 | inactive | –
26 | Cc1ccccc1C1c2[nH]c3ccccc3c2CCN1C(=O)c1ccc(=O)n(C)n1 (stereo not drawn) | inactive | –
27 | CCCCOc1ccc(-c2ncc(C(=O)OCC)c(N)n2)cc1 | inconclusive: 18.4 µM [cytotoxic, partial curve] | –
28 | CCOc1ccc2nc3cc(N=Nc4ccc(N)nc4N)ccc3c(N)c2c1 | inactive | –
29 | Cc1csc(=O)n1CC(=O)OCC(=O)c1c(N)n(C)c(=O)n(C)c1=O | – | inconclusive: 42.5%
30 | CCCCCCCC(=O)N/N=C/c1ccc([N+](=O)[O-])o1 | inconclusive: 29.1 µM [rising, single point] | –
31 | O=C(/C=C/c1ccc([N+](=O)[O-])s1)N1CCCCC1 | inconclusive: 25.9 µM [cytotoxic, single point] | –
32 | CN(C(=O)COC(=O)c1ccc2c(c1)OCO2)c1c(N)n(Cc2ccccc2)c(=O)[nH]c1=O | inconclusive: 6.51 µM [cytotoxic, partial curve, poor fit] | –
33 | Cc1ccc(NC(=O)CN(C)C(=O)C(Sc2ccccc2)c2ccccc2)cc1 (stereo not drawn) | inconclusive: 29.1 µM [cytotoxic, single point] | –
34 | O=C(CN1CCN(S(=O)(=O)c2ccc(F)cc2)CC1)Nc1cccc(C(F)(F)F)c1 | inconclusive: 29.1 µM [cytotoxic, single point] | –
35 | COc1ccc(CN(C)C(=O)CNC(=O)c2ccc(C)cc2)cc1 | inconclusive: 29.1 µM [cytotoxic, single point] | –
36 | COc1cc(C2C(C#N)=C(N)Oc3cc4c(cc32)OCO4)cc(OC)c1OC (stereo not drawn) | active: 0.231 µM | –
37 | CCOc1ccc(C(c2c(NC(=O)c3ccccc3)sc(C)c2C)N2CCN(C)CC2)cc1 (stereo not drawn) | inactive | –
38 | Cc1cc(C)n2nc(C(=O)OCC(=O)N(C)Cc3ccccc3)nc2n1 | inactive | –
39 | Cc1ccc(S(=O)(=O)NCCNc2ccccc2[N+](=O)[O-])cc1 | inconclusive: 29.1 µM [cytotoxic, single point] | –
40 | CCNc1nc(Cl)nc(NNC(=O)C(C)Oc2ccccc2)n1 (stereo not drawn) | inconclusive: 9.2 µM [cytotoxic, partial curve, poor fit] | –
41 | CCOC(=O)c1ccccc1NC(=O)N1CCCn2nc(C)cc21 | inconclusive: 14.6 µM [cytotoxic, single point] | –
42 | O=C(Nc1cccc(F)c1)N1CCc2nc(NCc3cccc(Oc4ccccc4)c3)ncc2C1 | active: 18.4 µM | –
43 | O=C(Nc1ccc(Cl)cc1Cl)[C@@H]1CC=C[C@@H]2CCN(C3CC3)C(=O)[C@@H]21 | inconclusive: 9.2 µM [cytotoxic, partial curve, poor fit] | –
44 | CCC(=NCCc1c(C)[nH]c2ccc(C)cc12)C1=C(O)CC(c2ccccc2)CC1=O (stereo not drawn) | inactive | –
45 | Cc1ccc(S(=O)(=O)Nc2ccccc2F)cc1C(=O)NNC(=O)c1ccccc1O | inconclusive: 32.6 µM [cytotoxic, single point] | –
46 | CC(C)N(Cc1nnc(-c2ccccc2Cl)o1)C(=O)COc1cccc(Cl)c1 | inconclusive: 8.2 µM [cytotoxic, partial curve, poor fit] | –

In the list so far, these have sulfur:
Row | Compound | Potency | activity change, negative = cytotoxicity
1 | CCC(CC)C(=O)N1N=C(c2ccc(NS(C)(=O)=O)cc2)CC1c1ccc(C)cc1 (stereo not drawn) | active: 18.4 µM | –
7 | O=S(=O)(NCc1ccc(F)cc1)c1ccc(-n2cccn2)cc1 | inactive | –
10 | CCN(CC(=O)Nc1cc(Cl)ccc1C)C(=O)C1CCN(c2ncnc3sc(C)c(C)c23)CC1 | inconclusive: 14.6 µM [cytotoxic, partial curve] | –
12 | CCNC(=O)COn1c(SCC(=O)NCC)nc2ccccc2c1=O | inconclusive: 9.2 µM [rising, partial curve, poor fit] | –
14 | O=C(CCS(=O)(=O)c1cc(Br)cc2c1N(C(=O)C1CC1)CC2)N1CCN(c2ccccc2)CC1 | inconclusive: 18.4 µM [rising, single point] | –
15 | Cc1ccc(C)c(NC(=O)CN(C)C(=O)c2ccc(S(=O)(=O)N3CCCCCC3)cc2)c1 | inactive | –
16 | O=S(=O)(c1cccs1)N1CCN(CC(O)COC2CCCc3ccccc32)CC1 (stereo not drawn) | inconclusive: 3.26 µM [cytotoxic, full curve] | –
21 | O=C1CCc2cc(S(=O)(=O)Nc3cccc(F)c3)cc3c2N1CC3 | inconclusive: 9.2 µM [cytotoxic, partial curve, poor fit] | –
22 | COc1ccc(S(=O)(=O)N2CCC(O)(c3ccc(Cl)cc3)CC2)cc1 | inconclusive: 29.1 µM [cytotoxic, single point] | –
29 | Cc1csc(=O)n1CC(=O)OCC(=O)c1c(N)n(C)c(=O)n(C)c1=O | – | inconclusive: 42.5%
31 | O=C(/C=C/c1ccc([N+](=O)[O-])s1)N1CCCCC1 | inconclusive: 25.9 µM [cytotoxic, single point] | –
33 | Cc1ccc(NC(=O)CN(C)C(=O)C(Sc2ccccc2)c2ccccc2)cc1 (stereo not drawn) | inconclusive: 29.1 µM [cytotoxic, single point] | –
34 | O=C(CN1CCN(S(=O)(=O)c2ccc(F)cc2)CC1)Nc1cccc(C(F)(F)F)c1 | inconclusive: 29.1 µM [cytotoxic, single point] | –
37 | CCOc1ccc(C(c2c(NC(=O)c3ccccc3)sc(C)c2C)N2CCN(C)CC2)cc1 (stereo not drawn) | inactive | –
39 | Cc1ccc(S(=O)(=O)NCCNc2ccccc2[N+](=O)[O-])cc1 | inconclusive: 29.1 µM [cytotoxic, single point] | –
45 | Cc1ccc(S(=O)(=O)Nc2ccccc2F)cc1C(=O)NNC(=O)c1ccccc1O | inconclusive: 32.6 µM [cytotoxic, single point] | –

Continued.

Row | Compound | Potency | activity change, negative = cytotoxicity
47 | CN(Cc1ccccc1N1CCCC1)C(=O)c1cc2ccccc2o1 | inactive | –
48 | COc1ccc(OC)c(Nc2ncnc3c2cnn3-c2cccc(C)c2)c1 | inconclusive: 29.1 µM [cytotoxic, single point] | –
49 | Cc1cc2ccccc2n1CCNC(=O)COc1ccc2ccccc2c1 | inconclusive: 20.6 µM [cytotoxic, partial curve, poor fit] | –
50 | Cc1cccc(NC(=O)C[n+]2cccc(C)c2)c1 | inconclusive: 0.291 µM [rising, full curve] | –
51 | O=C(C1=C[C@H](c2ccccc2)C[C@H](OCc2ccc(CO)cc2)O1)N1CCN(Cc2ccc3c(c2)OCO3)CC1 | inconclusive: 20.6 µM [cytotoxic, partial curve, poor fit] | –
52 | COc1cc(C(=O)OCc2cc(=O)n3ccsc3n2)ccc1OC(C)C | inconclusive: 25.9 µM [cytotoxic, partial curve, poor fit] | –
53 | Cc1cc(C)cc(N2C(=O)CSC23C(=O)N(CC(=O)NC2CCCCC2)c2ccccc23)c1 (stereo not drawn) | inactive | –
54 | CCCCCn1c(CN2CCCCC2C)nc2c1c(=O)n(C)c(=O)n2C (stereo not drawn) | active: 4.61 µM | –
55 | O=C(NNc1cc(N2CCOCC2)nc(N2CCOCC2)n1)C12CC3CC(CC(C3)C1)C2 | inconclusive: 5.17 µM [cytotoxic, partial curve, poor fit] | –
56 | O=C1[C@H](Cc2ccccc2)NCCCC[C@H](c2ccc(Cl)cc2)N1Cc1ccc(Cl)cc1 | inconclusive: 9.2 µM [cytotoxic, partial curve] and inconclusive: 20.6 µM [cytotoxic, single point] | –
57 | CCS(=O)(=O)Nc1ccc(C2=NN(C(C)=O)C(c3cccs3)C2)cc1 (stereo not drawn) | inconclusive: 8.2 µM [cytotoxic, partial curve] | –
58 | CSc1nc(NCC(C)C)c2c3c(sc2n1)CN(C)CC3 | active: 18.4 µM | –
59 | Cc1ccccc1N1CCN(C2CCCN(C(=O)c3snnc3C)C2)CC1 (stereo not drawn) | inconclusive: 23.1 µM [cytotoxic, partial curve, poor fit] | –
60 | S=c1[nH]nc(CCSCc2ccccc2)n1-c1ccccc1 | inconclusive: 18.4 µM [cytotoxic, single point] | –
61 | Cc1cc(C(=O)Nc2c(C)n(C)n(-c3ccccc3)c2=O)on1 | inconclusive: 29.1 µM [rising, single point] | –
62 | COc1cc(/C=C2\SC(=S)N(c3cccnc3)C2=O)ccc1O | inconclusive: 13 µM [rising, partial curve, poor fit] | –
63 | CSCCOC(=O)C1=C(C)NC(=O)NC1c1ccc2c(c1)OCO2 (stereo not drawn) | inactive | –
64 | Cc1cccc(NC(=O)Cn2cc([N+](=O)[O-])cn2)n1 | inconclusive: 29.1 µM [rising, single point] | –
65 | CCCN1CCc2c(sc(NC(=O)CCS(=O)(=O)c3ccccc3)c2C(=O)OC)C1 | inactive | –
66 | CC(=O)N1CCCc2cc(S(=O)(=O)N3CCC(C(=O)N(C)C4CCCCC4)CC3)ccc21 | inactive | –
67 | Nc1ccc(C(=O)OCc2nc3cc4ccccc4cc3[nH]2)cc1 | inconclusive: 18.4 µM [cytotoxic, single point] | –
68 | Cc1cc(C)nc(SCCn2c(N3CCOCC3)nc3c2c(=O)[nH]c(=O)n3C)n1 | inactive | –

Looked up by compound from the entries so far, two records:
Row | Compound | Potency | activity change, negative = cytotoxicity
59 | Cc1ccccc1N1CCN(C2CCCN(C(=O)c3snnc3C)C2)CC1 (stereo not drawn) | inconclusive: 23.1 µM [cytotoxic, partial curve, poor fit] | –
63 | CSCCOC(=O)C1=C(C)NC(=O)NC1c1ccc2c(c1)OCO2 (stereo not drawn) | inactive | –
